Not every detail of the peptide structures is certain; ends, links or a residue may be inferred. Where no end group is shown, it is not given here.
Tested on: BN skin grafts
Experiment: BN skin graft survival after immunization
Assay type: in vivo, rat
Conditions: immunized 2×, subcutaneous

KPVSPMLIYNREEYARF [chimeric construct]
Skin graft survival: 8 to 9 days

Reference: patent US6326465A, “Immunomodulatory polypeptides derived from the invariant chain of MHC class II” (The Johns Hopkins University, priority 1998, dated 2001)
